Test results reported in the supplement of paper PMC10849652.
The list shows a part of the results.

Sequences of proteins named here, by UniProt entry; tags and fusion partners are left off. A change or cut given only in a name is not applied to a line headed by its entry.
UniProt P62834: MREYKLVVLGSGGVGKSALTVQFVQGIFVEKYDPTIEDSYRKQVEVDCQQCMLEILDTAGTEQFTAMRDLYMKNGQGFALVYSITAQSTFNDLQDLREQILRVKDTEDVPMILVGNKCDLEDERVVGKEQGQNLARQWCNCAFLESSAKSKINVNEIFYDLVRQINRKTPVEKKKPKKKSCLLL
UniProt Q96QF0: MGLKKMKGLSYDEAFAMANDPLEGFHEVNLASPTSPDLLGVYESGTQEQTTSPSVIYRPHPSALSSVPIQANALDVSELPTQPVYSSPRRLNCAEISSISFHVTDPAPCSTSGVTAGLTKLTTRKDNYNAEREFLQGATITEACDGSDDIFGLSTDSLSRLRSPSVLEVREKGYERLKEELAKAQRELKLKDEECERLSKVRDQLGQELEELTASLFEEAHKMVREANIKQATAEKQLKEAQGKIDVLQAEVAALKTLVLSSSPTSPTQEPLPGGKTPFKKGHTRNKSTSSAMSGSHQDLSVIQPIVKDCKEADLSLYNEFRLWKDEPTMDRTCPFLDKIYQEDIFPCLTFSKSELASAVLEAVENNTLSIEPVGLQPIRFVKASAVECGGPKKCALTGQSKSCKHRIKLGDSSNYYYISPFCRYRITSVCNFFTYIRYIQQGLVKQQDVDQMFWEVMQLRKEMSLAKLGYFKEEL
UniProt Q96EV2: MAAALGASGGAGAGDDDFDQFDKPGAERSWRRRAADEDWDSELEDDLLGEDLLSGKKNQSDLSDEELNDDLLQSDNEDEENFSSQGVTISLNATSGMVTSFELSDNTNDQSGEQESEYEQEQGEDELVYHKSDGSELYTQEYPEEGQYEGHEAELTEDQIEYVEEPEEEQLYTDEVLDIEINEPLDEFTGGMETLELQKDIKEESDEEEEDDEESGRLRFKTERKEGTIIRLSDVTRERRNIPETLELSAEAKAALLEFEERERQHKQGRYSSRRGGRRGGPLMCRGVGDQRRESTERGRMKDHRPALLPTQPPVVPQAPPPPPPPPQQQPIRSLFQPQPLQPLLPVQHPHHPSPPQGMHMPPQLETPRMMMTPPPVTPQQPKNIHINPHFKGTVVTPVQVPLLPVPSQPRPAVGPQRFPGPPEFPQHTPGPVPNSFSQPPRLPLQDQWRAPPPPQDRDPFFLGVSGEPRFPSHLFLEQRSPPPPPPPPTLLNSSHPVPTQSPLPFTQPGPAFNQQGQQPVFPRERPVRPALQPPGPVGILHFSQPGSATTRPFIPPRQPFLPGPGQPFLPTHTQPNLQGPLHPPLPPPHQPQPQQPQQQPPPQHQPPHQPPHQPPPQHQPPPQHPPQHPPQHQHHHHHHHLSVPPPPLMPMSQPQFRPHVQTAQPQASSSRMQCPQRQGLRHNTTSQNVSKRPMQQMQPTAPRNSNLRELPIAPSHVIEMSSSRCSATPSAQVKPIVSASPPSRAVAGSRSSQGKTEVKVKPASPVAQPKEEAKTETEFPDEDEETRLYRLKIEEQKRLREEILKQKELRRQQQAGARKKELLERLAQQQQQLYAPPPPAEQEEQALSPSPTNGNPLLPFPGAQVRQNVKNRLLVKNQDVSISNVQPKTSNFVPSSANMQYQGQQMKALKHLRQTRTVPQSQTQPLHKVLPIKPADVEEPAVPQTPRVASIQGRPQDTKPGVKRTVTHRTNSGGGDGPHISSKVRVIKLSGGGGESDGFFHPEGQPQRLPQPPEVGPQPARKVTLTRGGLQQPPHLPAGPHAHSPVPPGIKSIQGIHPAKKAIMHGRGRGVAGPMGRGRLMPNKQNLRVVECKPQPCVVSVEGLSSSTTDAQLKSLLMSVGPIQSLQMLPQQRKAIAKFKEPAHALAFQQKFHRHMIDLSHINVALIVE
UniProt P11234: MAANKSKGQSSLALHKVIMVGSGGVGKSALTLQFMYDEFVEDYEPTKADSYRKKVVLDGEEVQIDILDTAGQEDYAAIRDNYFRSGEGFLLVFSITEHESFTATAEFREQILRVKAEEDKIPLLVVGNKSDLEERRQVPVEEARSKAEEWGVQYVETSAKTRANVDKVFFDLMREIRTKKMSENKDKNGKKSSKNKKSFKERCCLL
UniProt Q9UL25: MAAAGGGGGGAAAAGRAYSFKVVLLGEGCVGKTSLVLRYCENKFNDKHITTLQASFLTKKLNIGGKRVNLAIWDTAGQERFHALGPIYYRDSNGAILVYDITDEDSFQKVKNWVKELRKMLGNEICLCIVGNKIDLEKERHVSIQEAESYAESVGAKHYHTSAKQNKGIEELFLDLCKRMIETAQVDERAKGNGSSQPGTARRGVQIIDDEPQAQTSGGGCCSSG
UniProt Q9UL26: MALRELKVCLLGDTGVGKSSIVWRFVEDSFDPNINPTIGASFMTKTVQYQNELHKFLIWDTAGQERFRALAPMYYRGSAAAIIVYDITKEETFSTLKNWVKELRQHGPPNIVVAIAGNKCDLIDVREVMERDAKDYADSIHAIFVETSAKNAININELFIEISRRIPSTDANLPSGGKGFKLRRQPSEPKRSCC
UniProt Q13636: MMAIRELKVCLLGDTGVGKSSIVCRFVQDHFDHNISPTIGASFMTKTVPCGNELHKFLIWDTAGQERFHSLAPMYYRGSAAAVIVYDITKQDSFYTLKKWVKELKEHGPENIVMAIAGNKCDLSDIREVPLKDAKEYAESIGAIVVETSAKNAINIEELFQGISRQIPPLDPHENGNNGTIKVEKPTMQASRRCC
UniProt Q16576, whole entry, looked up: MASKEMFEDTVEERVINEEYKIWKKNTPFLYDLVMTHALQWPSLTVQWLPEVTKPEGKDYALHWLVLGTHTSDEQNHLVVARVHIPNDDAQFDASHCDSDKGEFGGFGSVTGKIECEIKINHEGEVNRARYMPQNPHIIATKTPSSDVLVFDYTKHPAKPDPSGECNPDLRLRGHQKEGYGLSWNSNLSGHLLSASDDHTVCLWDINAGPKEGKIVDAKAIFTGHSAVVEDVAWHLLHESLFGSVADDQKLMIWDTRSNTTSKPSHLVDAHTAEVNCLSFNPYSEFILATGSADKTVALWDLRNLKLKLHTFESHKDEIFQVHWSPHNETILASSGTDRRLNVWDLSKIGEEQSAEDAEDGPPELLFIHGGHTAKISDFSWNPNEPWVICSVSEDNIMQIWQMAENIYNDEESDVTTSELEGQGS
UniProt A4D1S5: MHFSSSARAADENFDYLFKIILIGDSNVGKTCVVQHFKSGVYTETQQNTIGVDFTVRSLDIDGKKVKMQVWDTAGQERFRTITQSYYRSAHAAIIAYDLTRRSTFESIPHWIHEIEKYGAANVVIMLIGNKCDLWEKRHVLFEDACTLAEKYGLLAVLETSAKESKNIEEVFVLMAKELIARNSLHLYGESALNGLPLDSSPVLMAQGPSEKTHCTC
UniProt Q15276: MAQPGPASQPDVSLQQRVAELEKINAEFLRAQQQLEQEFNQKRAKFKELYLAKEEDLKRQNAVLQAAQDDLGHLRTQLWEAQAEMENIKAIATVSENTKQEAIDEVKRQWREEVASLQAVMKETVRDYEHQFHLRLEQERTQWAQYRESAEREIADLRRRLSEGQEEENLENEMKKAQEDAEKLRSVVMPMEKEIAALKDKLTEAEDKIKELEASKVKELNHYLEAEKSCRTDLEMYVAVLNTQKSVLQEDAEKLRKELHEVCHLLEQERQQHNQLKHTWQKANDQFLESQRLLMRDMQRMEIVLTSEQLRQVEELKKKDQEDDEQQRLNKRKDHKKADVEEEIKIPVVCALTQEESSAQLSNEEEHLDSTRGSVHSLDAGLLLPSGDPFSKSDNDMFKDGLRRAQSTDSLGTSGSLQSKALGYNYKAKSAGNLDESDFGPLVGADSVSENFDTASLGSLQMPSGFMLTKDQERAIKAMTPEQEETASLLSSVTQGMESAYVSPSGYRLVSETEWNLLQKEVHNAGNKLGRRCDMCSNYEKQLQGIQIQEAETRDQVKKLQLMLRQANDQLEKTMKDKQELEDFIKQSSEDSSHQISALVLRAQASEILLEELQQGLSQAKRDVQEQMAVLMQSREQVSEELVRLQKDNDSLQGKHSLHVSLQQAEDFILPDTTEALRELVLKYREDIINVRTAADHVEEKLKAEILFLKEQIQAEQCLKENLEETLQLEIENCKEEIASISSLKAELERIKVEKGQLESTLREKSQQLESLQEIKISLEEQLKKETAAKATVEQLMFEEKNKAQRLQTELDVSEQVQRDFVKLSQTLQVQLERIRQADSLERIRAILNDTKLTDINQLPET
UniProt P20339: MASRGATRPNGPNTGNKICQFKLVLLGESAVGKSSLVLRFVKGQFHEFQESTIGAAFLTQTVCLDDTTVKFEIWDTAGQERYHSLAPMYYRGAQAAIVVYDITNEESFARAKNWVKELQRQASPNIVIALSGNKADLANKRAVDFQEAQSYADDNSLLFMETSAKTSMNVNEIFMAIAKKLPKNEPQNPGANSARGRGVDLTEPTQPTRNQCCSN
UniProt P46060: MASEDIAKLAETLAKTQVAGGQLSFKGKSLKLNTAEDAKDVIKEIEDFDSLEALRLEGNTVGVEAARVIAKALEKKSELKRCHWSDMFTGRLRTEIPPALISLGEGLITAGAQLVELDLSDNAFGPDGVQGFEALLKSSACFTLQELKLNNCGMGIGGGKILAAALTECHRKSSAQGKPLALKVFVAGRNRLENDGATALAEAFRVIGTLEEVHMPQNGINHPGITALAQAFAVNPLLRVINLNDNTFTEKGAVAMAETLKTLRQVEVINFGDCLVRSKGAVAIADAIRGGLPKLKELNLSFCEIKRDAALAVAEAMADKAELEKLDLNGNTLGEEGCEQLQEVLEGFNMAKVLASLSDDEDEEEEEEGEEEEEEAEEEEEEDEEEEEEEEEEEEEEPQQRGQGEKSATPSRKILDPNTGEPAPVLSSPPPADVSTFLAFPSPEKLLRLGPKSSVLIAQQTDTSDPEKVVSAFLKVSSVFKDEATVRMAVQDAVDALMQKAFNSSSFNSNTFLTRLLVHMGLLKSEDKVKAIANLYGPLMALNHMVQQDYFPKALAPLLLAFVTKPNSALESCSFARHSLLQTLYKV
UniProt Q9H2M9: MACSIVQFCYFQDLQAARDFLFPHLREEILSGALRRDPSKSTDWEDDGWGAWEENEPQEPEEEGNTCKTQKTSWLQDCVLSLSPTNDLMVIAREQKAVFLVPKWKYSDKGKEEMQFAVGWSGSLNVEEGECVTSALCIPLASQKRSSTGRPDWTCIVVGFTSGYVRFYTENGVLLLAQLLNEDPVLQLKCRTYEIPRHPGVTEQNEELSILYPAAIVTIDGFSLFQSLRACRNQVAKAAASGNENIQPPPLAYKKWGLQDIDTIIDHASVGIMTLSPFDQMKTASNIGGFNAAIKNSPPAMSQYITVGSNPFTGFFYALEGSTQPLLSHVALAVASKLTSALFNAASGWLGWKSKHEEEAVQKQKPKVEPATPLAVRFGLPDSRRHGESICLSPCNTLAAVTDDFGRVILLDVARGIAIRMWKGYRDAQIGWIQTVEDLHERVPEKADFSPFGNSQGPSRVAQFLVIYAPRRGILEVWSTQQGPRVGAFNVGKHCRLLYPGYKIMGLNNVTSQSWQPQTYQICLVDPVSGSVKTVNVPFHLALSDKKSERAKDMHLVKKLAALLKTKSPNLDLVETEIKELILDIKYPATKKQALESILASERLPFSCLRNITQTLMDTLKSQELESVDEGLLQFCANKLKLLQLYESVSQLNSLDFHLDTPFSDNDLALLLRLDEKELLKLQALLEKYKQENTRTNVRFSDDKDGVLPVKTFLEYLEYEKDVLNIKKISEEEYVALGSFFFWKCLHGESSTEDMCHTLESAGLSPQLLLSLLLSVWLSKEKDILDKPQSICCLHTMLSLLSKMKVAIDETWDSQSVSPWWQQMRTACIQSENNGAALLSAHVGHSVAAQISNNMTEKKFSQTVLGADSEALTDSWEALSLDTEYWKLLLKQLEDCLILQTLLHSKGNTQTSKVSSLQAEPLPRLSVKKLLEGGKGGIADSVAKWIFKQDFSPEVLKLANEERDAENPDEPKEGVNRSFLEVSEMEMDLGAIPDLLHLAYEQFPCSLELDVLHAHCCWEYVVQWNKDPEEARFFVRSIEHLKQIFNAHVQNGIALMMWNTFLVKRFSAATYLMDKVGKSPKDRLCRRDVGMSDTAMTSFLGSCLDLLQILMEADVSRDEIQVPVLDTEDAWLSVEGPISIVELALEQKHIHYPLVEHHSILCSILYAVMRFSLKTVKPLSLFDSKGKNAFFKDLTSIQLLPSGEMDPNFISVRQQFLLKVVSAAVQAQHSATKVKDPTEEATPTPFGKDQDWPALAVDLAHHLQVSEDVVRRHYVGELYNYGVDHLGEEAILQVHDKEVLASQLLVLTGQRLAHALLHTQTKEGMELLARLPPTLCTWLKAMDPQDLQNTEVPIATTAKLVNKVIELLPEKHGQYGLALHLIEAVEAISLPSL
UniProt Q9H082: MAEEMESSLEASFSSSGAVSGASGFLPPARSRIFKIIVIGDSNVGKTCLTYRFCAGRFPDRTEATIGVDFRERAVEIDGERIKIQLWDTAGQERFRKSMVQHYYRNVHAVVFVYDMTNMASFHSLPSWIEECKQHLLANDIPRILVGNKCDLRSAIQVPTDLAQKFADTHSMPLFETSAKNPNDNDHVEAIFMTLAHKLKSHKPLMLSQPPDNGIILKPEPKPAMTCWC

Legend:
Experiment in all cases: log2 fold change, soluble protein after heating vs DMSO (PISA); higher = thermal stabilisation; K562 cells, 10 uM, 30 min; active = over 0.2 and 3.5 SD of the protein, either way, in both replicates (recomputed)
[1] = compound: C1=CC=C(C=C1)[C@H](COC2=CC3=C(C=C2)NC(=O)N3)NC(=O)C4=CC=CN(C4=O)CC5=CC(=C(C=C5)F)F
Procedure, shortened: (§1)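 K562 cells at 2×10^6 cells/mL were treated for 30 min with 10 μM compound, and aliquots were heated for 3 min over 48°C-58°C before pooling. Extraction used PBS with 0.5% NP-40 at 4°C, and soluble protein was the supernatant after 21,000xg for 90 min, measured by TMTpro 16plex LC-MS/MS with channel sums equalised. Thermal stability values, relative to control samples and from duplicates, are log2 fold changes.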

[2] = compound: CC1=C(SC2=C1C(=N[C@H](C3=NN=C(N32)C)CC(=O)N)C4=CC=C(C=C4)Cl)C
Procedure, shortened: as §1

[3] = compound: CC1=C2C(=CC=C1)N=C(N(C2=O)C3=CC=CC=C3C)CN4C=NC5=C(N=CN=C54)N
Procedure, shortened: as §1

[4] = compound: Cc1sc2c(c1C)C(c1ccc(Cl)cc1)=N[C@@H](CC(=O)OC(C)(C)C)c1nnc(C)n1-2
Procedure, shortened: as §1

[5] = compound: c1ccc([C@@H]2C[C@H]2NC2CCNCC2)cc1
Procedure, shortened: as §1

Measured: log2 fold change

RAP1A (UniProt P62834)
inactive: [1] -0.016 | [2] 0.024 | [3] -0.003 | [4] -0.024 | [5] -0.004

RAB3IP (UniProt Q96QF0)
inactive: [1] 0.079 | [2] 0.047 | [3] 0.212 | [4] -0.01 | [5] -0.128

RBM33 (UniProt Q96EV2)
inactive: [1] 0.002 | [2] -0.018 | [3] 0.029 | [4] -0.004 | [5] 0.012

RALB isoform 2 (UniProt P11234)
inactive: [1] 0.004 | [2] 0.041 | [3] 0.019 | [4] -0.038 | [5] 0.015

RANBP9 (UniProt Q96S59)
inactive: [1] 0.024 | [2] 0.03 | [3] 0.007 | [4] 0.005 | [5] 0.061

RAPGEF5, A0A590UJR0
inactive: [1] -0.026 | [2] -0.558 | [3] 0.134 | [4] 0.107 | [5] -0.274

RAVER1 (UniProt E9PAU2)
inactive: [1] -0.138 | [2] -0.204 | [3] 0.283 | [4] -0.19 | [5] 0.053

RBL1 (UniProt P28749)
inactive: [1] 0.157

RBM27 (UniProt Q9P2N5)
inactive: [1] -0.015 | [2] 0.005 | [3] 0.049 | [4] 0.029 | [5] -0.01

RAB21 (UniProt Q9UL25)
inactive: [1] 0.012 | [2] 0.008 | [3] 0.022 | [4] -0.035 | [5] 0.011

RAB22A (UniProt Q9UL26)
inactive: [1] 0.041 | [2] 0.019 | [3] 0.043 | [4] -0.016 | [5] -0.043

RAB31 (UniProt Q13636)
inactive: [1] -0.008 | [2] -0.018 | [3] 0.017 | [4] -0.029 | [5] 0.012

RBBP7 (UniProt Q16576)
inactive: [1] 0.024

RACK1 (UniProt P63244)
inactive: [1] 0.014 | [2] 0.023 | [3] -0.01 | [4] -0.016 | [5] -0.047

RAB19 isoform 2 (UniProt A4D1S5)
inactive: [1] 0.136

RAN (UniProt P62826)
inactive: [1] 0.006 | [2] -0.024 | [3] -0.013 | [4] 0.034 | [5] 0.037

Reprinted from above (2 entries):
RALB isoform 2 (UniProt P11234)
inactive: [1] 0.004 | [2] 0.041 | [3] 0.019 | [4] -0.038 | [5] 0.015

RANBP9 (UniProt Q96S59)
inactive: [1] 0.024 | [2] 0.03 | [3] 0.007 | [4] 0.005 | [5] 0.061

(further entries)

RAB10 (UniProt P61026)
inactive: [1] 0.022 | [2] 0.001 | [3] 0.027 | [4] 0.019 | [5] -0.015

RAB7A (UniProt P51149)
inactive: [1] 0.035 | [2] 0.004 | [3] -0.019 | [4] 0.002 | [5] 0.009

RABEP1 (UniProt Q15276)
inactive: [1] 0.025 | [2] 0.065 | [3] 0.058 | [4] -0.004 | [5] 0.006

RAB5A (UniProt P20339)
inactive: [1] 0.013 | [2] 0.024 | [3] -0.072 | [4] -0.018 | [5] 0.018

RANGAP1 (UniProt P46060)
inactive: [1] -0.051 | [2] 0.034 | [3] 0.031 | [4] -0.011 | [5] 0

RAB8B (UniProt Q92930)
inactive: [1] 0.004 | [2] -0.006 | [3] -0.222 | [4] 0.033 | [5] -0.062

RBM22 (UniProt Q9NW64)
inactive: [1] 0.033 | [2] -0.022 | [3] -0.013 | [4] 0.027 | [5] 0.049

RAB3GAP2 (UniProt Q9H2M9)
inactive: [1] -0.023 | [2] -0.07 | [3] 0.051 | [4] 0.04 | [5] 0.001

RAI1 (UniProt Q7Z5J4)
inactive: [1] 0.213

RARS (UniProt P54136)
inactive: [1] -0.057 | [2] -0.081 | [3] -0.02 | [4] 0.169 | [5] 0.024

RAB33B (UniProt Q9H082)
inactive: [1] 0.003 | [2] -0.028 | [3] 0.116 | [4] -0.016 | [5] 0.069
